The list is a part of this screen's results and no random one: it gathers tests that were run many times, whatever their T/C, doses with no T/C, and many T/C values between a quarter and a half above the control. Other doses and runs of a compound stand elsewhere. T/C: endpoint of the treated group in % of that of the vehicle group. Some doses have a count of surviving animals in place of a T/C: the source holds a T/C of zero for them, seemingly a mark for toxic or unscored doses. Some survivor counts are full or nearly so, which does not show that the dose was tolerated: the source hardly ever lists a survival T/C far under the control, and the zero likely stands for such cases as well. Survivors were counted at the toxicity check, usually on the fifth day, unless a day is given; later deaths do not show. Schedules are NCI's codes, read here as Q, the interval in days (D) or hours (H), X, the number of doses. Some entries were tested several times; the values are given in rising order. For survival time, this PubChem deposit counts one and a half times the control or more as active, and values a quarter to a half above the control carry no call in these data; other NCI protocols may use other cut-offs. Some T/C values are followed by the survivors on the day toxicity was checked, most often the fifth; without a count, all were alive then.

For this assay, the system named is B6C3F1 mice, ip Sarcoma M5076, median survival T/C. The assay can be described thus: NCI In Vivo Anticancer Drug Screen. Data for tumor model Sarcoma M5076 (intraperitoneal) in B6C3F1 mice. The note with it: T/C endpoint: median survival time, higher T/C = longer survival. The method, boiled down:
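Tumour cells were transplanted into mice, compound or vehicle was given, survival of both groups was followed, and the treated figure was expressed over the control figure.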

Where [1] appears, read: dose: 200.0 mg/kg/injection, schedule: Q04DX004 (ip), vehicle: saline with Tween-80.
Where [2] appears, read: dose: 400.0 mg/kg/injection, schedule: Q04DX004 (ip), vehicle: saline with Tween-80.
The mark [3] stands for this setting: dose: 100.0 mg/kg/injection, schedule: Q04DX004 (ip), vehicle: saline with Tween-80.
The mark [4] stands for this setting: dose: 200.0 micrograms/kg/injection, schedule: Q04DX004 (ip), vehicle: saline + alcohol.
[5] abbreviates: dose: 800.0 mg/kg/injection, schedule: Q04DX004 (ip), vehicle: saline with Tween-80.
Where [6] appears, read: dose: 400.0 mg/kg/injection, schedule: Q04DX004 (ip), vehicle: saline.

Take `O=[N+]([O-])c1ccc(C=C2C=CN(CCO)C=C2)cc1`: the survivor count is reported as 0 of 10 on day 14 under setting [1] and 0 of 10 on day 14 under setting [2].

Take `COc1cc([C@@H]2c3cc4c(c(O)c3C[C@H]3COC(=O)[C@@H]32)OCO4)cc(OC)c1OC`: under “dose: 2.88 mg/kg/injection, schedule: Q04DX004 (ip), vehicle: suspension in saline”, the T/C is 142 % of control. Moreover, where the note is “dose: 22.2 mg/kg/injection, schedule: Q04DX004 (ip), vehicle: suspension in saline”, the survivor count is 4 of 10 on day 14.

As to `CN1CCN(c2ccc3nc(-c4ccc5nc(-c6ccc(O)cc6)[nH]c5c4)[nH]c3c2)CC1`, the survivor count (dose: 450.0 mg/kg/injection, schedule: Q04DX004 (ip), vehicle: saline) was 2 of 10 on day 14.

`N=C(N)c1ccc(N=NNc2ccc(C(=N)N)cc2)cc1`: the survivor count is, setting by setting: under setting [3], 9 of 10 on day 14; under setting [1], 0 of 10 on day 14; under setting [2], 0 of 10 on day 14.

As for `CC(/C=C/C1OC(=O)C=CC1C)=C\C(C)C/C=C/C(C)=C/C(C)C(=O)C(C)C(O)C(C)C/C(C)=C/C(=O)O` (centres undefined), the T/C under setting [4] was 145 % of control.

For `COc1cc(C2CC(C)(O)Oc3cc4c(cc32)OCO4)cc(OC)c1OC` (centres undefined), the T/C runs as follows: (dose: 50.0 mg/kg/injection, schedule: Q04DX004 (ip), vehicle: saline with Tween-80) 130 % of control [8 of 10 alive on day 14]; under setting [3], 130 % of control [9 of 10 alive on day 14]. Further, the survivor count reads like this: under setting [3], 4 of 10 on day 14; under setting [1], 0 of 10 on day 14 and 7 of 10 on day 14; under setting [2], 0 of 10 on day 14; under setting [5], 0 of 10 on day 14.

As to `C[n+]1c2cc(N)ccc2cc2ccc(N)cc21`, the T/C is 128 and 132 % of control (dose: 3.0 mg/kg/injection, schedule: Q04DX004 (ip), vehicle: saline); 128 % of control [8 of 10 alive on day 14] (dose: 12.0 mg/kg/injection, schedule: Q04DX004 (ip), vehicle: saline). Also, the survivor count by setting is: (dose: 24.0 mg/kg/injection, schedule: Q04DX004 (ip), vehicle: saline) 6 of 10 on day 14; (dose: 48.0 mg/kg/injection, schedule: Q04DX004 (ip), vehicle: saline) 0 of 10 on day 14.

Consider `c1cn[nH]c1`, for which, under setting [6], the T/C was 126 % of control [8 of 10 alive on day 14] and the survivor count is given as 0 of 10 on day 14. Besides, the survivor count (dose: 800.0 mg/kg/injection, schedule: Q04DX004 (ip), vehicle: saline) is reported as 0 of 10 on day 14.

Take `N#CCS(=O)(=O)c1cccc[n+]1[O-]`: the survivor count is 3 of 9 on day 14 under setting [2] and 0 of 10 on day 14 under setting [5].

`COc1ccc(-c2c(N3CCOCC3)oc3cc(N4CCOCC4)c(O)cc23)cc1`: the survivor count under setting [5] is on record as 10 of 10 on day 14.

For the compound `CCOC1NC(=O)Oc2ccccc21` (centres undefined), the survivor count (dose: 800.0 mg/kg/injection, schedule: Q04DX004 (ip), vehicle: Klucel (hydroxypropylcellulose) (HPC)) is 0 of 10 on day 14.

Turning to `N=C(N)Sc1cc(O)ccc1O`, the survivor count (dose: 700.0 mg/kg/injection, schedule: Q04DX004 (ip), vehicle: saline with Tween-80) is 0 of 10 on day 14.

For the compound `CC1[C@@H]2CC=C3[C@H]4CCC5Cc6nc7c(nc6C[C@@]5(C)C4CC(=O)[C@]32CO[C@]12OC(C)(C)CC2O)CC1CC[C@@H]2C3=C[C@H]4O[C@@]5(O[C@@](C)(CO)C[C@@H]5O)C(C)[C@@]4(O)[C@]3(C)[C@@H](O)CC2[C@]1(C)C7` (some centres undefined), the survivor count is, setting by setting: under setting [4], 6 of 10 on day 14; (dose: 400.0 micrograms/kg/injection, schedule: Q04DX004 (ip), vehicle: saline + alcohol) 3 of 10 on day 14; (dose: 800.0 micrograms/kg/injection, schedule: Q04DX004 (ip), vehicle: saline + alcohol) 2 of 10 on day 14.

Regarding `N=C(N)c1nn(C2OC(CO)C(O)C2O)c2nc[nH]c(=O)c12` (centres undefined), the T/C reads like this: (dose: 25.0 mg/kg/injection, schedule: Q04DX004 (ip), vehicle: Klucel + Tween-80) 126 % of control; (dose: 50.0 mg/kg/injection, schedule: Q04DX004 (ip), vehicle: Klucel + Tween-80) 135 % of control. In addition, the survivor count is, setting by setting: (dose: 100.0 mg/kg/injection, schedule: Q04DX004 (ip), vehicle: Klucel + Tween-80) 3 of 10 on day 14; (dose: 138.88 mg/kg/injection, schedule: Q04DX004 (ip), vehicle: Klucel + Tween-80) 1 of 10 on day 14; (dose: 138.89 mg/kg/injection, schedule: Q04DX004 (ip), vehicle: other) 4 of 10 on day 14.

With `COc1cc(C(C)c2cc3c(cc2OCCO)OCO3)cc(OC)c1OC` (centres undefined), the survivor count is on record as 7 of 10 on day 9 under setting [2] and 0 of 10 on day 9 under setting [5].

With `Oc1cc(O)cc(/C=C/c2ccc(O)c(O)c2)c1`, the survivor count reads like this: (dose: 50.0 mg/kg/injection, schedule: Q04DX004 (ip), vehicle: DMSO) 10 of 10 on day 14; (dose: 100.0 mg/kg/injection, schedule: Q04DX004 (ip), vehicle: DMSO) 8 of 10 on day 14; (dose: 200.0 mg/kg/injection, schedule: Q04DX004 (ip), vehicle: DMSO) 3 of 10 on day 14 and 7 of 10 on day 14; (dose: 400.0 mg/kg/injection, schedule: Q04DX004 (ip), vehicle: DMSO) 0 of 10 on day 14; (dose: 800.0 mg/kg/injection, schedule: Q04DX004 (ip), vehicle: DMSO) 0 of 10 on day 14.

With `c1nnc(NCNc2nncs2)s1`, the T/C (dose: 86.0 mg/kg/injection, schedule: Q04DX003 (ip), vehicle: suspension in saline) was 131 % of control [9 of 10 alive on day 14]; the T/C (dose: 86.0 mg/kg/injection, schedule: Q04DX004 (ip), vehicle: suspension in saline) was 148 % of control; the T/C (dose: 100.0 mg/kg/injection, schedule: Q04DX004 (ip), vehicle: suspension in saline) was 127 % of control; the T/C (dose: 144.0 mg/kg/injection, schedule: Q04DX003 (ip), vehicle: suspension in saline) is 143 % of control [8 of 10 alive on day 14]; the T/C (dose: 240.0 mg/kg/injection, schedule: Q04DX003 (ip), vehicle: suspension in saline) is 143 % of control [9 of 10 alive on day 14]; the T/C (dose: 400.0 mg/kg/injection, schedule: Q04DX003 (ip), vehicle: suspension in saline) was 139 % of control [8 of 10 alive on day 14]. Besides, the survivor count is given as 6 of 10 on day 14 (dose: 666.0 mg/kg/injection, schedule: Q04DX003 (ip), vehicle: suspension in saline) and 6 of 10 on day 14 (dose: 666.0 mg/kg/injection, schedule: Q04DX004 (ip), vehicle: suspension in saline).

For `Cc1c2ccccc2c(C)c2c1cc(C(=O)O)c1ccccc12`, the T/C was 133 % of control (dose: 100.0 mg/kg/injection, schedule: Q04DX004 (ip), vehicle: sodium bicarbonate) and 128 % of control (dose: 400.0 mg/kg/injection, schedule: Q04DX004 (ip), vehicle: sodium bicarbonate).

`Cc1c(-c2ccc(-c3ccccc3F)cc2)nc2ccc(F)cc2c1C(=O)O`: the survivor count is, setting by setting: (dose: 50.0 mg/kg/injection, schedule: Q01DX009 (ip), vehicle: water) 4 of 10 on day 14; (dose: 100.0 mg/kg/injection, schedule: Q01DX009 (ip), vehicle: water) 0 of 10 on day 14.
